Data as given in PubChem BioAssay AID1224830 (NIAID, 2016).
The whole screen tested about 18,000 reagents; this is an unselected part. About 2,900 of them (16%) count as active. 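Calls are made per well; low scores hint the gene aids the LPS response, high scores that it dampens it.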 Repeated entries: four replicate wells of each siRNA pool. Reagent sequences are not shown.

- Test: 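Genes whose knock-down alters the TNF-alpha reporter response to LPS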 (primary screen)
- Cells: human THP-1 monocytic leukaemia cells, TNF dual-luciferase reporter clone, PMA-differentiated to macrophage-like cells
- Knock-down reagent: siRNA pool against human genes, 50 nM
- Time to read-out: LPS for 4 h, given about 3 days after siRNA transfection
- Challenge: bacterial LPS (TLR4 ligand), 10 ng/ml
- Read-out: 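TNF firefly reporter luminescence divided by renilla, normalised to the plate median, then turned into a robust z-score for each replicate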
- Direction: TNF reporter robust z-score: higher = stronger TNF reporter response to LPS
- Call rule: 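a well is active when its z-score exceeds 2.8 or falls below -1.5; control wells carry no call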

gene	TNF reporter robust z-score	Outcome
PCBP1 (poly(rC) binding protein 1)	-0.69	inactive
PCBP1 (poly(rC) binding protein 1)	0.03	inactive
PCBP1 (poly(rC) binding protein 1)	-0.38	inactive
PCBP1 (poly(rC) binding protein 1)	-0.52	inactive
ZNF512 (zinc finger protein 512)	1.88	inactive
ZNF512 (zinc finger protein 512)	1.45	inactive
ZNF512 (zinc finger protein 512)	-1.17	inactive
ZNF512 (zinc finger protein 512)	-0.69	inactive
SLTM (SAFB like transcription modulator)	0.41	inactive
SLTM (SAFB like transcription modulator)	0.36	inactive
SLTM (SAFB like transcription modulator)	0.14	inactive
SLTM (SAFB like transcription modulator)	0.27	inactive
TBCK (TBC1 domain containing kinase)	-0.05	inactive
TBCK (TBC1 domain containing kinase)	-0.39	inactive
TBCK (TBC1 domain containing kinase)	-0.47	inactive
MRPL33 (mitochondrial ribosomal protein L33)	0.02	inactive
MRPL33 (mitochondrial ribosomal protein L33)	1.6	inactive
MRPL33 (mitochondrial ribosomal protein L33)	0.61	inactive
MRPL33 (mitochondrial ribosomal protein L33)	0.98	inactive
BPIFB2 (BPI fold containing family B member 2)	-1.06	inactive
BPIFB2 (BPI fold containing family B member 2)	-1	inactive
BPIFB2 (BPI fold containing family B member 2)	-0.97	inactive
BPIFB2 (BPI fold containing family B member 2)	-0.79	inactive
GOT2 (glutamic-oxaloacetic transaminase 2)		inactive
GOT2 (glutamic-oxaloacetic transaminase 2)	-0.13	inactive
GOT2 (glutamic-oxaloacetic transaminase 2)	-0.73	inactive
GOT2 (glutamic-oxaloacetic transaminase 2)	-0.32	inactive
GOT2 (glutamic-oxaloacetic transaminase 2)	-0.3	inactive
FARSB (phenylalanyl-tRNA synthetase subunit beta)	2.06	inactive
FARSB (phenylalanyl-tRNA synthetase subunit beta)	1.78	inactive
FARSB (phenylalanyl-tRNA synthetase subunit beta)	1.3	inactive
FARSB (phenylalanyl-tRNA synthetase subunit beta)	3.11	active
RAET1G (retinoic acid early transcript 1G)	-0.63	inactive
RAET1G (retinoic acid early transcript 1G)	-0.69	inactive
RAET1G (retinoic acid early transcript 1G)	-1.9	active
RAET1G (retinoic acid early transcript 1G)	-1.21	inactive
ZNF678 (zinc finger protein 678)	0.56	inactive
ZNF678 (zinc finger protein 678)	0.15	inactive
ZNF678 (zinc finger protein 678)	0.38	inactive
ZNF678 (zinc finger protein 678)	0.47	inactive
UQCC2 (ubiquinol-cytochrome c reductase complex assembly factor 2)	-1.32	inactive
UQCC2 (ubiquinol-cytochrome c reductase complex assembly factor 2)	-0.23	inactive
UQCC2 (ubiquinol-cytochrome c reductase complex assembly factor 2)	-1.17	inactive
UQCC2 (ubiquinol-cytochrome c reductase complex assembly factor 2)	0.43	inactive
ACAD9 (acyl-CoA dehydrogenase family member 9)	-0.43	inactive
ACAD9 (acyl-CoA dehydrogenase family member 9)	-0.71	inactive
ACAD9 (acyl-CoA dehydrogenase family member 9)	-0.39	inactive
ACAD9 (acyl-CoA dehydrogenase family member 9)	-0.34	inactive
SH3YL1 (SH3 and SYLF domain containing 1)	-0.06	inactive
SH3YL1 (SH3 and SYLF domain containing 1)	-0.38	inactive
SH3YL1 (SH3 and SYLF domain containing 1)	-0.1	inactive
P2RX2 (purinergic receptor P2X 2)	-0.52	inactive
P2RX2 (purinergic receptor P2X 2)	-0.15	inactive
P2RX2 (purinergic receptor P2X 2)	-0.14	inactive
P2RX2 (purinergic receptor P2X 2)	-0.11	inactive
STK35 (serine/threonine kinase 35)	-0.05	inactive
STK35 (serine/threonine kinase 35)	1.13	inactive
STK35 (serine/threonine kinase 35)	0.11	inactive
STK35 (serine/threonine kinase 35)	0.37	inactive
UGT1A8 (UDP glucuronosyltransferase family 1 member A8)	-1.05	inactive
UGT1A8 (UDP glucuronosyltransferase family 1 member A8)	-0.58	inactive
UGT1A8 (UDP glucuronosyltransferase family 1 member A8)	-0.5	inactive
UGT1A8 (UDP glucuronosyltransferase family 1 member A8)	-0.86	inactive
ZNF699 (zinc finger protein 699)	-1.36	inactive
ZNF699 (zinc finger protein 699)	-1.26	inactive
ZNF699 (zinc finger protein 699)	-1.3	inactive
ZNF699 (zinc finger protein 699)	-1.42	inactive
PTMS (parathymosin)	-0.38	inactive
PTMS (parathymosin)	0.56	inactive
PTMS (parathymosin)	-1.05	inactive
PTMS (parathymosin)	-0.19	inactive
REEP3 (receptor accessory protein 3)	-0.37	inactive
REEP3 (receptor accessory protein 3)	-0.14	inactive
REEP3 (receptor accessory protein 3)	-1.11	inactive
REEP3 (receptor accessory protein 3)	0.95	inactive
SGCD (sarcoglycan delta)		inactive
SGCD (sarcoglycan delta)	0.02	inactive
SGCD (sarcoglycan delta)	-0.16	inactive
SGCD (sarcoglycan delta)	-0.3	inactive
SGCD (sarcoglycan delta)	0.03	inactive
CDC73 (cell division cycle 73)	0.39	inactive
CDC73 (cell division cycle 73)	1.05	inactive
CDC73 (cell division cycle 73)	0.07	inactive
CDC73 (cell division cycle 73)	0.35	inactive
ZNF773 (zinc finger protein 773)	0.01	inactive
ZNF773 (zinc finger protein 773)	0.29	inactive
ZNF773 (zinc finger protein 773)	1.14	inactive
ZNF773 (zinc finger protein 773)	-0.56	inactive
ZNF543 (zinc finger protein 543)	0.55	inactive
ZNF543 (zinc finger protein 543)	1.03	inactive
ZNF543 (zinc finger protein 543)	0.22	inactive
ZNF543 (zinc finger protein 543)	0.84	inactive
NPLOC4 (NPL4 homolog, ubiquitin recognition factor)	-0.71	inactive
NPLOC4 (NPL4 homolog, ubiquitin recognition factor)	-0.45	inactive
NPLOC4 (NPL4 homolog, ubiquitin recognition factor)	-1.24	inactive
NPLOC4 (NPL4 homolog, ubiquitin recognition factor)	-0.13	inactive
SLC7A8	0.92	inactive
SLC7A8	-0.32	inactive
SLC7A8	-0.04	inactive
SLC7A8	0.89	inactive
NAIP (NLR family apoptosis inhibitory protein)	-0.26	inactive
NAIP (NLR family apoptosis inhibitory protein)	1.67	inactive
NAIP (NLR family apoptosis inhibitory protein)	-0.38	inactive
NAIP (NLR family apoptosis inhibitory protein)	0.87	inactive
DTNB (dystrobrevin beta)	-1.45	inactive
DTNB (dystrobrevin beta)	-1.72	active
DTNB (dystrobrevin beta)	-1.32	inactive
DTNB (dystrobrevin beta)	-1.71	active
MRPL36 (mitochondrial ribosomal protein L36)	-1.06	inactive
MRPL36 (mitochondrial ribosomal protein L36)	-0.91	inactive
MRPL36 (mitochondrial ribosomal protein L36)	-0.96	inactive
MRPL36 (mitochondrial ribosomal protein L36)	-1.35	inactive
MT1H (metallothionein 1H)	-0.69	inactive
MT1H (metallothionein 1H)	-0.51	inactive
MT1H (metallothionein 1H)	-0.04	inactive
MT1H (metallothionein 1H)	-0.26	inactive
KTN1 (kinectin 1)	0.03	inactive
KTN1 (kinectin 1)	-0.48	inactive
KTN1 (kinectin 1)	-0.53	inactive
KTN1 (kinectin 1)	-0.78	inactive
SH3RF1 (SH3 domain containing ring finger 1)	0.56	inactive
SH3RF1 (SH3 domain containing ring finger 1)	0.02	inactive
SH3RF1 (SH3 domain containing ring finger 1)	-0.34	inactive
SH3RF1 (SH3 domain containing ring finger 1)	0.75	inactive
COG8 (component of oligomeric golgi complex 8)	-0.75	inactive
COG8 (component of oligomeric golgi complex 8)	-0.4	inactive
COG8 (component of oligomeric golgi complex 8)	0.05	inactive
COG8 (component of oligomeric golgi complex 8)	-0.28	inactive
HDGF (heparin binding growth factor)	0.18	inactive
HDGF (heparin binding growth factor)	0.64	inactive
HDGF (heparin binding growth factor)	0.02	inactive
HDGF (heparin binding growth factor)	0.01	inactive
KCTD17 (potassium channel tetramerization domain containing 17)	-1.39	inactive
KCTD17 (potassium channel tetramerization domain containing 17)	-1.71	active
KCTD17 (potassium channel tetramerization domain containing 17)	-1.61	active
KCTD17 (potassium channel tetramerization domain containing 17)	-1.83	active
SRRT (serrate, RNA effector molecule)	1.09	inactive
SRRT (serrate, RNA effector molecule)	-0.41	inactive
SRRT (serrate, RNA effector molecule)	-0.8	inactive
SRRT (serrate, RNA effector molecule)	-0.1	inactive

10 consecutive entries from above, for reference:
gene	TNF reporter robust z-score	Outcome
ZNF512 (zinc finger protein 512)	1.88	inactive
ZNF512 (zinc finger protein 512)	1.45	inactive
ZNF512 (zinc finger protein 512)	-1.17	inactive
ZNF512 (zinc finger protein 512)	-0.69	inactive
SLTM (SAFB like transcription modulator)	0.41	inactive
SLTM (SAFB like transcription modulator)	0.36	inactive
SLTM (SAFB like transcription modulator)	0.14	inactive
SLTM (SAFB like transcription modulator)	0.27	inactive
TBCK (TBC1 domain containing kinase)	-0.05	inactive
TBCK (TBC1 domain containing kinase)	-0.39	inactive
